Experimental findings from paper PMC4411755 are described below.

The assay has as its target T1, CTN-1/α-catulin tagged with the GAL4 DNA-binding domain (C. elegans) (UniProt G8JYB2).
T1 sequence: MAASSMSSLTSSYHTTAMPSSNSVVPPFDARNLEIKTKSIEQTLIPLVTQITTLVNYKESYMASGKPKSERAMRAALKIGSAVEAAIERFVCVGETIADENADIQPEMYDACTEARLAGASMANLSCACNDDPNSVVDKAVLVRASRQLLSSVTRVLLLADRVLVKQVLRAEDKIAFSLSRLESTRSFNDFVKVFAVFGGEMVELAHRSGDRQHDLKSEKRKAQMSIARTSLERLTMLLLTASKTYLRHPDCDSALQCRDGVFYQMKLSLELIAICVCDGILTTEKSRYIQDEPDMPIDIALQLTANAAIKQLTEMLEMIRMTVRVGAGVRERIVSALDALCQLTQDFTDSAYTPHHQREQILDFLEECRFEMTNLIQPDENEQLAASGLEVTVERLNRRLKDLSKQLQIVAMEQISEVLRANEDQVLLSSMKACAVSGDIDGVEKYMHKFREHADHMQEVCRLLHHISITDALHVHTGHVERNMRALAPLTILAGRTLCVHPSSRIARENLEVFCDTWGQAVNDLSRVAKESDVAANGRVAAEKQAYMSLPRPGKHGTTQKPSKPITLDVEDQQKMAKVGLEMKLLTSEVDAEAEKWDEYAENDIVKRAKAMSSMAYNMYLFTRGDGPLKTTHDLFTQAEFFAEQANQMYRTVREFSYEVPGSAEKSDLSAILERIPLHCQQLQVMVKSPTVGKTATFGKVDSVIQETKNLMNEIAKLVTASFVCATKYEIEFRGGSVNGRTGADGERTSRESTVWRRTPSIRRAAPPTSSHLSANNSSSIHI
The assay can be described thus: two-hybrid; Matchmaker GAL4-based system (Clontech); ctn-1 fragments on the GAL4 DNA-binding domain (pGBKT7, strain Y187), slo-1 cDNA fragments on the GAL4 activation domain (pGADT7, strain Y2H Gold); mating, selection of diploids on quadruple dropout plates with 40 μg/ml X-α-Gal.

No constants are given. Whether binding was seen depends on the method and setting. Sequences can lack the tags named with a protein.

Consider “SLO-1 RCK1 domain alone fused to the GAL4 activation domain (C. elegans) (domain or fragment)”, for which the binding entry is on record as “no binding”.

In the case of “SLO-1 RCK2 domain alone fused to the GAL4 activation domain (C. elegans) (domain or fragment)”, the binding result is given as “no binding”.
